Assay results: paper doi:10.1101/433532
Results are given in words; binding and its absence hold for the method and conditions named. In cells and extracts the contact can be indirect. Some results given as binding are weak or reduced against the parent protein; the word gives no strength.

Chains of the proteins cited; added tags and fusions are not shown.
UniProt Q92466: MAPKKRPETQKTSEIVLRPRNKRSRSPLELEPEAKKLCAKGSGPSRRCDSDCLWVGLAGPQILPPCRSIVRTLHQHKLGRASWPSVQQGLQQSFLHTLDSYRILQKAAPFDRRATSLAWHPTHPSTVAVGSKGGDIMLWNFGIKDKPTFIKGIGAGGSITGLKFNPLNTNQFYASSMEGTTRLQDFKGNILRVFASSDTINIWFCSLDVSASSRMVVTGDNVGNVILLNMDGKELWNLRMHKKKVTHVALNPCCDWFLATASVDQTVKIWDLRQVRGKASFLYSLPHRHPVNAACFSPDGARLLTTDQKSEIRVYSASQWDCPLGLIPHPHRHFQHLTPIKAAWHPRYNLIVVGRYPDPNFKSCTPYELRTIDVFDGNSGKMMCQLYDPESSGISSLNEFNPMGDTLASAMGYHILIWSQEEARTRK
UniProt Q16531: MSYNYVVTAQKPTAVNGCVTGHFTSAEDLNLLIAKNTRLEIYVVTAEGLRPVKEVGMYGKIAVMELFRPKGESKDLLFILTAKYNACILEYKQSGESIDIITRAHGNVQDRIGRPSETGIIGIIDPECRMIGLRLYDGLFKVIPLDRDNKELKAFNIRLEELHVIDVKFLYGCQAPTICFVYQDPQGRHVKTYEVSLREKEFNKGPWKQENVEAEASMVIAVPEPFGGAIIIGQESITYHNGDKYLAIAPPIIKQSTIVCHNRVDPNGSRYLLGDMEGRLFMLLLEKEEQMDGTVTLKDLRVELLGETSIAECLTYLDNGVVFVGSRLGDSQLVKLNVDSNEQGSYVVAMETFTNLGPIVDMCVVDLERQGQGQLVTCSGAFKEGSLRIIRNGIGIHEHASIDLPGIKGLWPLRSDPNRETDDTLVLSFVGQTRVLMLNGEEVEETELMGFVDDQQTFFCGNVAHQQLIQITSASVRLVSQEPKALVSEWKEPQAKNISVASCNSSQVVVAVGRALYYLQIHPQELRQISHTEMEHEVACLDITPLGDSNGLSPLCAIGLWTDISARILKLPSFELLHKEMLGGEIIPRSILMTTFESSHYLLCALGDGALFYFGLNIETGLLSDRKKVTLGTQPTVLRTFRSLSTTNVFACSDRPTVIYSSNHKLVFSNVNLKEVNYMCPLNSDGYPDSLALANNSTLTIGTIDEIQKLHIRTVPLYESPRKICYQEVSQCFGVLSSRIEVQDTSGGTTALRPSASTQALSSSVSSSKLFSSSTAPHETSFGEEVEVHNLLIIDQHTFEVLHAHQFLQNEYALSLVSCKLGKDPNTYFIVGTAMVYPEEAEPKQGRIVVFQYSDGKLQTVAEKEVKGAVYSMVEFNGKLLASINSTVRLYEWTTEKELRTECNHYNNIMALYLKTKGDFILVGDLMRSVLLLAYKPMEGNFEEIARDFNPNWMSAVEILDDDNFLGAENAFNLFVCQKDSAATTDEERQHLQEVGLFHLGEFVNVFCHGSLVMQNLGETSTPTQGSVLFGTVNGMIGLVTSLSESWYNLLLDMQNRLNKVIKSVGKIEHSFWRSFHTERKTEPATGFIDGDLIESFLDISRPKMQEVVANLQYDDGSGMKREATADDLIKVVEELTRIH

Biological target: DDB2 (human (endogenous in HAP1)) (UniProt Q92466)
Assay: co-IP

DDB1 (from UniProt Q16531 1-1140)
binding: binds
